These results are taken from publication PMC11047619.

Sequences of proteins named here, by UniProt entry; tags and fusion partners are left off.
UniProt Q8R4B8: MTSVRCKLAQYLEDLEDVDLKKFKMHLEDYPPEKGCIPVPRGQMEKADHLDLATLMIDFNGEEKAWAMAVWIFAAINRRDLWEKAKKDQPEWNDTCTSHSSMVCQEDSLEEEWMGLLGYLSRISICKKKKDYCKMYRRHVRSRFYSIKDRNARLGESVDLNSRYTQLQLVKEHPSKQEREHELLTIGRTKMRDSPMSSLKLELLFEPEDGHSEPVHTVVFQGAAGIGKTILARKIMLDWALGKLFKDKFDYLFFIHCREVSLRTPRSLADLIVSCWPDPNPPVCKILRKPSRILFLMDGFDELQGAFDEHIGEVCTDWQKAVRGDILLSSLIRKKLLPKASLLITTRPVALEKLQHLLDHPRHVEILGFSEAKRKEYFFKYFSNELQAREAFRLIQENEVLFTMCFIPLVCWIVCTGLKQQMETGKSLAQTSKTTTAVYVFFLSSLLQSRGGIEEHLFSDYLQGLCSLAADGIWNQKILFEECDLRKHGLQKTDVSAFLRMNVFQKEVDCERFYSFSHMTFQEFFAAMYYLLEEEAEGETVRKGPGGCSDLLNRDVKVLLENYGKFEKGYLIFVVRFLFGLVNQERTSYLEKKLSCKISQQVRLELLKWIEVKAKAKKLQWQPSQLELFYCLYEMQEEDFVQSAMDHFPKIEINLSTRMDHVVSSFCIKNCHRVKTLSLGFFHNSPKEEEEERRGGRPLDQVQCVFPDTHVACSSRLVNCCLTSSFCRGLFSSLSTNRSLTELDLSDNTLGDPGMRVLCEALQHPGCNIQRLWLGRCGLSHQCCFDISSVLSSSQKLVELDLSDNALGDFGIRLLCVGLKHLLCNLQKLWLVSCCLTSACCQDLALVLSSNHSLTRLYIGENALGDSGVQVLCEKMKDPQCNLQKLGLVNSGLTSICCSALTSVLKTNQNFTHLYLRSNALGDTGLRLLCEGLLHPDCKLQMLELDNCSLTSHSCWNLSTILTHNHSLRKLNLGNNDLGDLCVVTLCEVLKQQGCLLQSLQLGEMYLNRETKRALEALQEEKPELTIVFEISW
UniProt Q96P20: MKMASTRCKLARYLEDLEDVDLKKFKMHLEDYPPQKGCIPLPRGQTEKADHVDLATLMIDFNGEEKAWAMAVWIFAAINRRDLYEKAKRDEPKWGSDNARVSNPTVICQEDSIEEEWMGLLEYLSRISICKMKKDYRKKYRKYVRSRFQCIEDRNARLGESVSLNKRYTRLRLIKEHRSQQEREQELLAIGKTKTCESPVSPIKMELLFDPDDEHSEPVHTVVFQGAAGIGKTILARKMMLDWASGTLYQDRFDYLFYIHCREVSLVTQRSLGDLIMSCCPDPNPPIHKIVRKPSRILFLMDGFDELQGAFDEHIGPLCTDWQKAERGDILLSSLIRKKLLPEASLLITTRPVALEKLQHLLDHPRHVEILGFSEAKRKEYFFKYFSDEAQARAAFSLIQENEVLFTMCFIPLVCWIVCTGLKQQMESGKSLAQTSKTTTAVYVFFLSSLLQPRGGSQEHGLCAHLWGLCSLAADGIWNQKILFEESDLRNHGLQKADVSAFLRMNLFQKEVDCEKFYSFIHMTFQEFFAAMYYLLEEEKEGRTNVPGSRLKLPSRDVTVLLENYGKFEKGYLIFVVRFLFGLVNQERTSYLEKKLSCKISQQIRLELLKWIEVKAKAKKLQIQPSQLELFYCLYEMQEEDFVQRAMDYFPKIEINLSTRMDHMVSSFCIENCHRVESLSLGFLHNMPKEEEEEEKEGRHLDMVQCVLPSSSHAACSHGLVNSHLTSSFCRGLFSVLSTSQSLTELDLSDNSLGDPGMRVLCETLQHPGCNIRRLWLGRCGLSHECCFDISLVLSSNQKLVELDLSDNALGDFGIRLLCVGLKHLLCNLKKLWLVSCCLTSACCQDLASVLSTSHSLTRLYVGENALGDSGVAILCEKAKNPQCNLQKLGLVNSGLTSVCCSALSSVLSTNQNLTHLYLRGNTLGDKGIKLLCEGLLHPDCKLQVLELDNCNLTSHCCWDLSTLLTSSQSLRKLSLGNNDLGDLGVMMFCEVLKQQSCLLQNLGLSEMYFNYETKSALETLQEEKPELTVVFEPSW

Assay [1] has as its target T1, thioredoxin-interacting protein (mouse skin) (mouse (endogenous in mouse skin)) (UniProt Q8BG60).
T1 sequence: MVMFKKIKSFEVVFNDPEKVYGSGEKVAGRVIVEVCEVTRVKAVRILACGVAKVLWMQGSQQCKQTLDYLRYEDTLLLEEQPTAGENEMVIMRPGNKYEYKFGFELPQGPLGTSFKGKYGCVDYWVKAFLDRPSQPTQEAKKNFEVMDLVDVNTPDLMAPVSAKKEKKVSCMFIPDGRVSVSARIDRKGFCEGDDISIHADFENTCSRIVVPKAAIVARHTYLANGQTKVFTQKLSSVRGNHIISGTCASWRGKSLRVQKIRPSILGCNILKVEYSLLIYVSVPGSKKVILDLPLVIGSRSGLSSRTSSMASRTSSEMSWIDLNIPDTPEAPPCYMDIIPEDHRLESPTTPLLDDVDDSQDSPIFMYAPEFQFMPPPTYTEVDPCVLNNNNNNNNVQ
The assay can be described thus: co-IP; mouse skin homogenate in NP buffer (1 mg protein), precleared with A/G agarose beads; 1 ug TXNIP antibody overnight at 4 °C, protein A/G agarose; Western blot for NLRP3; mice with or without UV radiation and PT, EVE or PT and EVE treatment. In general terms: In western blotting, separated proteins are transferred to a membrane and probed.

For assay [2], the target named is T2, thioredoxin-interacting protein (human (endogenous in HaCaT)) (UniProt Q9H3M7).
T2 sequence: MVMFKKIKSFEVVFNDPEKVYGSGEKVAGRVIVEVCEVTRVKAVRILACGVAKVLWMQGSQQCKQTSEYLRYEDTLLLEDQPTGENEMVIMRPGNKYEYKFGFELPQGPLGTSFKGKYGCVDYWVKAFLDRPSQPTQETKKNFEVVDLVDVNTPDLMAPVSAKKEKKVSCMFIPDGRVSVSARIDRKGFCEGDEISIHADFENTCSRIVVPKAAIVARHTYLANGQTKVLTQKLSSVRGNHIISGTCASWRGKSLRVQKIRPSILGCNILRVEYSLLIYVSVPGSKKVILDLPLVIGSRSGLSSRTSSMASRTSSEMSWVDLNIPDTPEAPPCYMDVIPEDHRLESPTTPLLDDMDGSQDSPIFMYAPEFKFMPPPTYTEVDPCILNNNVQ
As to the kind of experiment: co-IP; HaCaT keratinocyte lysate in NP buffer (1 mg protein), precleared with A/G agarose beads; 1 ug TXNIP antibody overnight at 4 °C, protein A/G agarose; Western blot for NLRP3; cells with or without UV radiation and PT, EVE or PT and EVE treatment.

Results are given in words; binding and its absence hold for the method and conditions named. Binding seen in cells or lysates may run through a third protein. Some entries that bind do so weakly or less than the wild type.

As for “nucleotide-binding oligomerization domain-like receptor family pyrin domain containing 3 (mouse skin) (from UniProt Q8R4B8 1-1033)”, the binding entry in assay [1] is “binds”.

Turning to “nucleotide-binding oligomerization domain-like receptor family pyrin domain containing 3 (from UniProt Q96P20 1-1036)”, in assay [2], the binding entry is listed as “binds”.
